Data reported in PMC7051184, “C9orf72 arginine-rich dipeptide repeat proteins disrupt karyopherin-mediated nuclear import” (eLife, 2020).
Results are given in words; binding and its absence hold for the method and conditions named. Binding seen in cells or lysates may run through a third protein. Some entries that bind do so weakly or less than the wild type.

By UniProt entry, the sequences of proteins in these tests, tags left out. Residues count along the entry.
UniProt P37198: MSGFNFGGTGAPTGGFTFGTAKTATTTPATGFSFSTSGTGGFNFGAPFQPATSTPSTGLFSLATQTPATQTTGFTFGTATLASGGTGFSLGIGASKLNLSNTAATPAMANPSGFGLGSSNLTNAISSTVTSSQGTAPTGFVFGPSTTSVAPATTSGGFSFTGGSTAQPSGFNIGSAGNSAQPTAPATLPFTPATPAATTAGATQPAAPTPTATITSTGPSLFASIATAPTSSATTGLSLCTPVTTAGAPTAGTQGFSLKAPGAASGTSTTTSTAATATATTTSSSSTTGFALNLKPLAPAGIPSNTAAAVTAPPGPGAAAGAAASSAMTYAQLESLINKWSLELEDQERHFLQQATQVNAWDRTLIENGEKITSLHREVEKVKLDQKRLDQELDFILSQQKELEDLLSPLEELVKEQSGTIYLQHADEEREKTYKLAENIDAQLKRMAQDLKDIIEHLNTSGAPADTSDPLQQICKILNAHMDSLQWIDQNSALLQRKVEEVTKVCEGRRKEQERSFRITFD
UniProt P52948, residues 1-880: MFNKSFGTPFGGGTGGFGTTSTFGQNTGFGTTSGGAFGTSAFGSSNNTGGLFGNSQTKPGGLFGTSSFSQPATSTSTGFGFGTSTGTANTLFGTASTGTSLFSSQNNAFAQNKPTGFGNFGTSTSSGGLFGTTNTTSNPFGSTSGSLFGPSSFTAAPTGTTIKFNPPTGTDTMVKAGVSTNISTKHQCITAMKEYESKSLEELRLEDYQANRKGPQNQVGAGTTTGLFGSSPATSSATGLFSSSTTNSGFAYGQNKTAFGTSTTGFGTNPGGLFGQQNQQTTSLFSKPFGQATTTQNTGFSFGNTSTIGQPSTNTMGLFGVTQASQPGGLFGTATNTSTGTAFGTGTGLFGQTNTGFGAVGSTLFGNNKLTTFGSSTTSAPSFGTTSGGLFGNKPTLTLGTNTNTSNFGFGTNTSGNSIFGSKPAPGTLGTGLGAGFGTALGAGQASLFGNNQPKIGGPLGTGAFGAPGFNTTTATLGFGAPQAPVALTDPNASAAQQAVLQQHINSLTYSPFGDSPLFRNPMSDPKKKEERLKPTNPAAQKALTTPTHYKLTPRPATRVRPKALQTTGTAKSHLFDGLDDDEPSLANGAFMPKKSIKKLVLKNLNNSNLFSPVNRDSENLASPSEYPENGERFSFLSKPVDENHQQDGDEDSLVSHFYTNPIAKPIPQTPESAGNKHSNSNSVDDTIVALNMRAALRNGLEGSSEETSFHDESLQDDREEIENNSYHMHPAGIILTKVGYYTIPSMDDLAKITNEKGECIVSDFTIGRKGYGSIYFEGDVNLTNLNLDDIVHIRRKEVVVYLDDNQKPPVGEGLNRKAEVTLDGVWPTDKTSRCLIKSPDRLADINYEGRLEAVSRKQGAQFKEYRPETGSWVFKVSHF
UniProt P18754: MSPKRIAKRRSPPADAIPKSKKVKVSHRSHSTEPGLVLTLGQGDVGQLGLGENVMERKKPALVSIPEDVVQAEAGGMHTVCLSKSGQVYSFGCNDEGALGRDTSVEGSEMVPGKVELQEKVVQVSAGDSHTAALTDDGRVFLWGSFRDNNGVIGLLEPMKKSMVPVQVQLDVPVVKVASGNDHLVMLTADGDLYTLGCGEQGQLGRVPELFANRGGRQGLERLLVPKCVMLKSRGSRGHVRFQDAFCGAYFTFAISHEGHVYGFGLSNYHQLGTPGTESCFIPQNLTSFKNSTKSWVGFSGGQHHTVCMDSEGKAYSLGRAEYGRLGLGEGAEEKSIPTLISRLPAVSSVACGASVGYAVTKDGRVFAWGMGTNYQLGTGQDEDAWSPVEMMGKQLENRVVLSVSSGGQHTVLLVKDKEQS
UniProt O00571: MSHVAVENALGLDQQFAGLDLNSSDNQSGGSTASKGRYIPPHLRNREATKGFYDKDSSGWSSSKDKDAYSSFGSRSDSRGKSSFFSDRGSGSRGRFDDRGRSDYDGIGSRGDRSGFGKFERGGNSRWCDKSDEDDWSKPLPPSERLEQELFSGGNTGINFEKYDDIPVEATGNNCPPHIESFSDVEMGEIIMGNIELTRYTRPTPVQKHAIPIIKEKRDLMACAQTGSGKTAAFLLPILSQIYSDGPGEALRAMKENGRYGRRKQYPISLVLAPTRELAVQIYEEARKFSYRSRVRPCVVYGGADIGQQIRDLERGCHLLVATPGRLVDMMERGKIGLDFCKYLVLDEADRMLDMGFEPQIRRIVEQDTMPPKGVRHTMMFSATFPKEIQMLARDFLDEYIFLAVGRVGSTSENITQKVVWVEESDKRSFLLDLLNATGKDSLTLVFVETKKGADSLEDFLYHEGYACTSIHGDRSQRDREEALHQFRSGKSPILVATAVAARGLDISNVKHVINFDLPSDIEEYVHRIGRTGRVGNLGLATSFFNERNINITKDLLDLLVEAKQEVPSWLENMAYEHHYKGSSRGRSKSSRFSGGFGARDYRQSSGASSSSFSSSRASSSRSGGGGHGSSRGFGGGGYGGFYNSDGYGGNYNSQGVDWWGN
UniProt Q14974: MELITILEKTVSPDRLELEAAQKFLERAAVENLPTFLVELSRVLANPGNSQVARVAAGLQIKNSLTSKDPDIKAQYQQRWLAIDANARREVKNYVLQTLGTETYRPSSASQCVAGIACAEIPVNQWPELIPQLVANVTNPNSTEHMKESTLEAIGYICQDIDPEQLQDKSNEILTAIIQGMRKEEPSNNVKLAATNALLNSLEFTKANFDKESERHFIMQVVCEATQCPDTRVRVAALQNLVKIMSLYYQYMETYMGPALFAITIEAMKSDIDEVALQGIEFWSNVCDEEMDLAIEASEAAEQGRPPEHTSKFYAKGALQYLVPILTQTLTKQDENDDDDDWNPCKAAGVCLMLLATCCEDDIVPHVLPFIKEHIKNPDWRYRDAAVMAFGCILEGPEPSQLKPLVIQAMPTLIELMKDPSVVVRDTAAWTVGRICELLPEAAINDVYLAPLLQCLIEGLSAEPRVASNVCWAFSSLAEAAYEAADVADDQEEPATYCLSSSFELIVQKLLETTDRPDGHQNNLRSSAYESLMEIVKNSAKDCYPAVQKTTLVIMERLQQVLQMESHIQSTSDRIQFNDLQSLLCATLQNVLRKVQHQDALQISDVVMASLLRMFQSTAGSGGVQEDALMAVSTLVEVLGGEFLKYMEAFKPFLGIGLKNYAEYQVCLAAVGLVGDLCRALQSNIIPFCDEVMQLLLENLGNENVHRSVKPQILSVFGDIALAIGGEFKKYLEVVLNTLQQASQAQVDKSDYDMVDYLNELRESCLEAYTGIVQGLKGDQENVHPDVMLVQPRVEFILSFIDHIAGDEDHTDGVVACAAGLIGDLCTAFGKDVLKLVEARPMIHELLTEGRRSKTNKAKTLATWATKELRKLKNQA
UniProt P35637: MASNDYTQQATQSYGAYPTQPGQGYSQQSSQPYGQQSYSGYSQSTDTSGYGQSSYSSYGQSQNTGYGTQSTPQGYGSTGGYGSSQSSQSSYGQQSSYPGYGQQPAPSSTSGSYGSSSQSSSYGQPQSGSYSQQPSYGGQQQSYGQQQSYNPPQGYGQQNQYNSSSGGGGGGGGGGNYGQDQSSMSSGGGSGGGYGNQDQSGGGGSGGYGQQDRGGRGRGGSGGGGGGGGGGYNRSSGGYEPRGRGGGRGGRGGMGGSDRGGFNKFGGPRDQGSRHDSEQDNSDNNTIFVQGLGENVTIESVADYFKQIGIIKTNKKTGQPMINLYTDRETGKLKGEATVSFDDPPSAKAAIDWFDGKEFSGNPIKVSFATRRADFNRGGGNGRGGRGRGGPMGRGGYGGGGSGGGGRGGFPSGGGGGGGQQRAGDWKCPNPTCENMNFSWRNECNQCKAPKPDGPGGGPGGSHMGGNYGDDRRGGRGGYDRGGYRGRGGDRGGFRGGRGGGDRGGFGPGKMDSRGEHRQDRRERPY
UniProt Q13148: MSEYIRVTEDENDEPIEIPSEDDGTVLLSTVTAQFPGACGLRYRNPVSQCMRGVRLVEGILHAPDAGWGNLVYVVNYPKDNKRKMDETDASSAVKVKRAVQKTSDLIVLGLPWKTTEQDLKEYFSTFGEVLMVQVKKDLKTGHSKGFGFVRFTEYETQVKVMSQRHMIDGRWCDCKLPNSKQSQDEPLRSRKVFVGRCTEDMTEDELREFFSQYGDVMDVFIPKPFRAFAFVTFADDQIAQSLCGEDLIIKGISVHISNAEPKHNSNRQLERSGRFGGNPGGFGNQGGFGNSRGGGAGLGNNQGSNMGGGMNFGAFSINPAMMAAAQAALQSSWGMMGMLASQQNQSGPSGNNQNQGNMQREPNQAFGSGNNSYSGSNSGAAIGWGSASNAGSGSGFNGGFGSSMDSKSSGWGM
UniProt Q92973: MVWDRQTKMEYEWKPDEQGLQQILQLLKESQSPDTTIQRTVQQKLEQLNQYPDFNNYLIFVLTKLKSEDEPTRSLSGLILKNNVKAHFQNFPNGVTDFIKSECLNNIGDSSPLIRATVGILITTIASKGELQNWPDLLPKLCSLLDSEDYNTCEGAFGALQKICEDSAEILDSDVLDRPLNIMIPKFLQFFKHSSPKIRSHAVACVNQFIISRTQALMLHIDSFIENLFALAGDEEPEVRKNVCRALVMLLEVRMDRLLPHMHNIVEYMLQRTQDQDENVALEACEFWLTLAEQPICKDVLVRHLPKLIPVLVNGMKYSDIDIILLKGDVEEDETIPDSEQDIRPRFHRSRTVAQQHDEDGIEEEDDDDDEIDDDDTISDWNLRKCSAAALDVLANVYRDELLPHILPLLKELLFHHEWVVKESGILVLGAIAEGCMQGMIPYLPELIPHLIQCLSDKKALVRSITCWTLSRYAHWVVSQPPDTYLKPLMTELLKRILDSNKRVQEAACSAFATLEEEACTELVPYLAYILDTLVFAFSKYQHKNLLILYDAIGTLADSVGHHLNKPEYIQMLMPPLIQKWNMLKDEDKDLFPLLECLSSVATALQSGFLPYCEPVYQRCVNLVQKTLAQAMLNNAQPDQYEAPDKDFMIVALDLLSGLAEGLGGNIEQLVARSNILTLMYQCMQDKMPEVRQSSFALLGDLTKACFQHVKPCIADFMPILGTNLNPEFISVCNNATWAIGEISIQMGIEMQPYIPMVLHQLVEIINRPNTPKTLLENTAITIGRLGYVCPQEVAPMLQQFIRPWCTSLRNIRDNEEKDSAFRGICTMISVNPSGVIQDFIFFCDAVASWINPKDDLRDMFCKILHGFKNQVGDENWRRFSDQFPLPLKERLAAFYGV

Legend:
[1] = target: T1, GR10, synthetic poly-glycine-arginine 10-mer dipeptide repeat protein with C-terminal lysine and cysteine (human); test: co-sedimentation; 100 µM DPR 10-mers added to 2.5 mg/ml HEK lysate in transport buffer with energy, 1 hr; aggregates pelleted, rinsed; equal volumes of supernatant and pellet analysed by immunoblot; only the target purified
T1 sequence (peptide): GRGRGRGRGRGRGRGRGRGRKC

[2] = target: T2, PR10, synthetic poly-proline-arginine 10-mer dipeptide repeat protein with C-terminal lysine and cysteine (human); test: as above
T2 sequence (peptide): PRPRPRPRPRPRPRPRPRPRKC

[3] = target: T1, GR10, synthetic poly-glycine-arginine 10-mer dipeptide repeat protein with C-terminal lysine and cysteine (human); test: co-sedimentation; 50 µM GR10 or 25 µM PR10 added to 5 mg/ml HEK whole cell lysate (TRB with energy mix), 60 min at 37°C; aggregates pelleted at 16,000 g for 10 min, washed 2x; pellet analysed by LC/MS/MS; only the target purified
[4] = target: T2, PR10, synthetic poly-proline-arginine 10-mer dipeptide repeat protein with C-terminal lysine and cysteine (human); test: as above

Substance | binding [1] | binding [2] | binding [3] | binding [4]
Nup62 of HEK cell lysate (from UniProt P37198 1-522) | binds | binds | – | –
Nup98 of HEK cell lysate (from UniProt P52948 1-880) | binds | binds | – | –
RCC1 of HEK cell lysate (from UniProt P18754 1-421) | no binding | no binding | – | –
ATP-dependent RNA helicase DDX3X of HEK cell lysate (from UniProt O00571 1-662) | binds | binds | – | –
importin β of HEK cell lysate (from UniProt Q14974 1-876) | binds | binds | – | –
FUS of HEK cell lysate (from UniProt P35637 1-526) | binds | binds | binds | binds
TDP-43 of HEK cell lysate (from UniProt Q13148 1-414) | binds | binds | binds | binds
transportin-1 of HEK cell lysate (from UniProt Q92973 1-898) | binds | binds | – | –
